# Measurements taken from PMC10912198.
# Chains of the proteins cited; added tags and fusions are not shown. Lines headed by an entry give the natural chain unless they say otherwise; changes in a name come on top. Residues count along the entry.
# UniProt Q9CXZ1, residues 43-175: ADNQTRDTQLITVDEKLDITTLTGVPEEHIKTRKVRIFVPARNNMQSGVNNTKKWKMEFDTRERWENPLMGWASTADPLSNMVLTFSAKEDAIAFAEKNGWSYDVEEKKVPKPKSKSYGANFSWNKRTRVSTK
# UniProt Q99JB2: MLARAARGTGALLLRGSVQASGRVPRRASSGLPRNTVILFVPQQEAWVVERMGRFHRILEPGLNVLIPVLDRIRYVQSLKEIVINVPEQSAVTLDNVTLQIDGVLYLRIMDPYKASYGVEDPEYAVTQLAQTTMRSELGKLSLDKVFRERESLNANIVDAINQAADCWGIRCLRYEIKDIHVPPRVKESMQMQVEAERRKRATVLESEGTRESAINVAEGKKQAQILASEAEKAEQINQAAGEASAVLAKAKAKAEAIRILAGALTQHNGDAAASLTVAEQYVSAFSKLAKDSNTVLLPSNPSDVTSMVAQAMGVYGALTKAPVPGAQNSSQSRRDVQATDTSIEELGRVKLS
# Target: GST-NDUFS4 fusion protein (UniProt Q9CXZ1)
# Assay: pull-down; 2 ug GST or GST-NDUFS4 immobilized on Glutathione Sepharose 4B beads, incubated 3 h at 4 C with cleared lysate (TNTE buffer) of HEK293T cells expressing STOML2-HA or deletion mutants; immunoblot; only the target purified
row,Substance,binding
1,STOML2 Δα5-HA (from UniProt Q99JB2),binds
2,STOML2 Δβ1-HA (from UniProt Q99JB2),binds

# These are yes or no findings as the source states them, for the method shown. Binding seen in cells or lysates may run through a third protein. Binding calls can cover weak binding; strength is not graded here.
